No constants are given. Whether binding was seen depends on the method and setting. For some assays here: In cells and extracts the contact can be indirect. Some binding calls cover weakened binding; strength is not graded here.
Legend:
[1] = biological target: Mcl-1, endogenous (human (endogenous in HCT116)) (UniProt Q07820); test: co-IP; endogenous proteins in HCT116 total cell lysate (RIPA lysis buffer with protease inhibitors); primary antibody 12 h at 4 °C, Protein G Sepharose; Western blot
Flag-Mcl-1 = Flag-Mcl-1 (UniProt Q07820); test: pull-down; purified Flag-Mcl-1 immobilized on anti-Flag M2 beads incubated with purified GST-CDC20; bead-bound proteins blotted with anti-CDC20 antibody; both purified

Sequences of proteins named here, by UniProt entry; tags and fusion partners are left off.
UniProt Q07820: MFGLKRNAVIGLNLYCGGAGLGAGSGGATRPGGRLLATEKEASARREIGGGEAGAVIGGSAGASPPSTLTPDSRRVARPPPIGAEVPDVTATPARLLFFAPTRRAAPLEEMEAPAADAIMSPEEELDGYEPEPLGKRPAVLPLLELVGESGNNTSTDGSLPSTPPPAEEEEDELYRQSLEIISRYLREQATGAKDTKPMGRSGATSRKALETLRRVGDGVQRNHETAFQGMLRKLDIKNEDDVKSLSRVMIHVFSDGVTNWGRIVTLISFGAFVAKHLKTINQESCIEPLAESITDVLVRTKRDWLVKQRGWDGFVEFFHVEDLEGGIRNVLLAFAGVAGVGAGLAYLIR
UniProt Q12834: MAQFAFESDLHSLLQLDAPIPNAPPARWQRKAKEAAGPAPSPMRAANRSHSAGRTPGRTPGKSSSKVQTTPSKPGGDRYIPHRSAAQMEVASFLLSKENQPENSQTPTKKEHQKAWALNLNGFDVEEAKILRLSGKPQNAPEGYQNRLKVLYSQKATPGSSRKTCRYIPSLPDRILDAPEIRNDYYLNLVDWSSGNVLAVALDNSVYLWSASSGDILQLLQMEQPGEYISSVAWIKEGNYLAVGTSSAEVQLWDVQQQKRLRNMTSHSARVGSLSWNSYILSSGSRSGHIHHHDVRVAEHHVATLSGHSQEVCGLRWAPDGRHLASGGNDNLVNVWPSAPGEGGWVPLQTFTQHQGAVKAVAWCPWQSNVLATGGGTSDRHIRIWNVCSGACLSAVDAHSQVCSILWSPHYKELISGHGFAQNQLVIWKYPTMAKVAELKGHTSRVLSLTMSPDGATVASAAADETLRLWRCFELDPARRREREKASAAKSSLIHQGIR

| binding [1] | binding (Flag-Mcl-1) | Substance |
| --- | --- | --- |
| binds | – | Cell division cycle 20 (CDC20), endogenous (from UniProt Q12834 1-499) |
| – | binds | GST-CDC20 (from UniProt Q12834 1-499) |
